Test results as given in PMC5692476, “Effects of Periplasmic Chaperones and Membrane Thickness on BamA-Catalyzed Outer-Membrane Protein Folding” (Journal of Molecular Biology, 2017).
No constants are given. Whether binding was seen depends on the method and setting.

Target: T1, Skp (Escherichia coli) (UniProt P0AEU7)
T1 sequence: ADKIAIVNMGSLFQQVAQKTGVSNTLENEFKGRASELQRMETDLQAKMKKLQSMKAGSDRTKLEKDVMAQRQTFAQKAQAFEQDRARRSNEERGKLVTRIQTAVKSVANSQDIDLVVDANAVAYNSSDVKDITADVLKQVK
Test: native MS; nano-ESI; proteins alone or pre-mixed 1:1; tOmpA diluted from 8 M urea into Skp or SurA (all 1 μM final, 0.2 M urea, 50 mM glycine–NaOH pH 9.5), 5 min at room temperature, then buffer exchange into 200 mM ammonium acetate pH 10; both purified

B1: SurA (natural protein, Escherichia coli, UniProt P0ABZ6 21-428, looked up)
chain: APQVVDKVAAVVNNGVVLESDVDGLMQSVKLNAAQARQQLPDDATLRHQIMERLIMDQIILQMGQKMGVKISDEQLDQAIANIAKQNNMTLDQMRSRLAYDGLNYNTYRNQIRKEMIISEVRNNEVRRRITILPQEVESLAQQVGNQNDASTELNLSHILIPLPENPTSDQVNEAESQARAIVDQARNGADFGKLAIAHSADQQALNGGQMGWGRIQELPGIFAQALSTAKKGDIVGPIRSGVGFHILKVNDLRGESKNISVTEVHARHILLKPSPIMTDEQARVKLEQIAADIKSGKTTFAAAAKEFSQDPGSANQGGDLGWATPDIFDPAFRDALTRLNKGQMSAPVHSSFGWHLIELLDTRNVDKTDAAQKDRAYRMLMNRKFSEEAASWMQEQRASAYVKILSN
notes: SurA, periplasmic chaperone of Escherichia coli; Probably the mature protein without its signal peptide (surmised); also called Escherichia coli periplasmic chaperone SurA
- binding: no binding (tested: 1 μM)
